Results: the supplement of paper PMC12823440, “Inhibitors supercharge kinase turnover through native proteolytic circuits” (Nature, 2025)
Counter-ions that a name gives are not always drawn. The list shows a part of the results. The calls rarely recur for the same compound in another form.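 Kinases were expressed as nanoluciferase fusions in K562 cells and luminescence was read every 4 h between 2 and 18 h as percent of control, DMSO set to 100% and a positive control to 0%. A time point counts as decreased when the signal drops significantly (2 sigma). The hit call is the authors' own, does not follow from the count of time points alone, and its rule is not shown.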

Protein sequences, listed by entry. Tags and fused reporters are not part of them. Lines headed by an entry give the natural chain unless they say otherwise; changes in a name come on top.
UniProt Q13546: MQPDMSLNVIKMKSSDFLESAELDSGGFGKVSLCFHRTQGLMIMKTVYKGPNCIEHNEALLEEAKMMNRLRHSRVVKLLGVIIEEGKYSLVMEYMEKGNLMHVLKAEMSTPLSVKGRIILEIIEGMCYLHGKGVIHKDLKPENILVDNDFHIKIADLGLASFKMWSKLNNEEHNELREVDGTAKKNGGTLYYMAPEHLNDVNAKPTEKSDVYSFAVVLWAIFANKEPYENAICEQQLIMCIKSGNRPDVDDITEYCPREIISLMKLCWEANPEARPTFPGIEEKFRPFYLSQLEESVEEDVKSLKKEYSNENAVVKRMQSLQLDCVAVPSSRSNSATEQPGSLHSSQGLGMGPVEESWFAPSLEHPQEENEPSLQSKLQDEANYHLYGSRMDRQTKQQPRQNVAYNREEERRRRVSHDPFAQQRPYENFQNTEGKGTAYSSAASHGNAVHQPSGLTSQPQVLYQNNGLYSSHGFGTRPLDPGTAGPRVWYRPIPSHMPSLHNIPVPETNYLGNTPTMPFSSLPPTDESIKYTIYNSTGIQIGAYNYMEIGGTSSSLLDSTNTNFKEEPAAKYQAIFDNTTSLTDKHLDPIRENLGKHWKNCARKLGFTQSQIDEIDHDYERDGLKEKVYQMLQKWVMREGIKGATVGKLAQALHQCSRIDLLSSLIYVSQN

Target: RIPK1 (UniProt Q13546)
Assay: kinase-Nluc reporter destabilization hit call (1 = scored as downregulated) (binary); higher = compound decreases kinase abundance
Details: K562; 2-18 h

kinase-Nluc reporter destabilization hit call, inactive:
CCOC(=O)N1C/C(=C/c2ccccc2F)C(=O)/C(=C\c2ccccc2F)C1 (2.5 µM) 0, C=CC(=O)Nc1cccc(-c2cccc3cnc(Nc4ccc(N5CCN(CCO)CC5)c(F)c4F)nc23)c1 [Olafertinib] (2.5 µM) 0, COc1cc(N2CCOCC2)ccc1Nc1ncc(Cl)c(Nc2ccccc2NS(C)(=O)=O)n1 (2.5 µM) 0, Nc1n[nH]c2nc(-c3ccc(NS(=O)(=O)c4cc(Cl)ccc4F)cc3)cnc12 (10 µM) 0, Nc1c(C(=O)NCc2ccc(C(=O)NCCCC3CCCCC3)cc2)cnn1-c1ccccc1 (2.5 µM) 0

Target: RIPK2 (UniProt O43353)
Assay: as above
Details: K562; 2-18 h

kinase-Nluc reporter destabilization hit call, inactive:
Cc1cc(C)nc(NS(=O)(=O)c2ccc(NC(=S)NC(=O)COc3ccc(Br)cc3Cl)cc2)n1 (2.5 µM) 0, Oc1ccc(/C=C/c2cc(O)cc(O)c2)cc1 [Resveratrol] (10 µM) 0, COc1ccc(S(=O)(=O)NCc2ccc(C(=O)NCCc3ccc(Cl)cn3)cc2)cc1 (10 µM) 0, O=c1[nH]c(C2CCCN2)nc2c1oc1ccc(Cl)cc12 (stereo not drawn) [XL413 (hydrochloride)] (10 µM) 0, O=C(NC1CCOCC1)c1ccc(-c2cc(-c3c[nH]nc3-c3ccccn3)ccn2)cc1 (10 µM) 0, N#Cc1c2nc3ccccc3nc2n2ccc(NC(=O)c3cccs3)cc12 (10 µM) 0, COCCNc1cc(NC(=O)N2CCCc3cc(CN4CCN(C)CC4=O)c(C=O)nc32)ncc1C#N [Roblitinib] (10 µM) 0, CN(C)CCC=C1c2ccccc2CCc2ccccc21 [Amitriptyline (hydrochloride)] (2.5 µM) 0, Cn1cc(C2=C(c3cn(CCCSC(=N)N)c4ccccc34)C(=O)NC2=O)c2ccccc21 [Ro 31-8220 (mesylate)] (2.5 µM) 0, CC(C)(C)n1nc(Cc2ccccc2O)c2c(N)ncnc21 (10 µM) 0, COc1cc2ncnc(Nc3ccc(F)c(Cl)c3)c2cc1NC(=O)/C=C/CN1CCCCC1 [Dacomitinib] (10 µM) 0, C[C@@H]1COCCN1c1nc(-c2cnc(N)cc2C(F)F)nc(N2[C@H](C)COC[C@@H]2C)n1 (2.5 µM) 0, COc1cc2ncnc(Nc3ccccc3)c2cc1OC (10 µM) 0, O=C(Nc1nc2ccccc2[nH]1)c1cccc([N+](=O)[O-])c1 [IRAK-4 protein kinase inhibitor 2] (10 µM) 0, Cc1ccc(Oc2nc3cc(-c4ccc(-c5ccccc5)cc4)c(Cl)cc3[nH]2)cc1C(=O)O (10 µM) 0, c1ccc(-c2nc3c(c(-n4ccc5cnccc54)n2)CCC3)nc1 (10 µM) 0, Cn1ncc2cc(-c3cnc(N)c(Cl)c3N3CCC4(CCNC4=O)CC3)ccc21 (10 µM) 0, C[C@H](Nc1ncnc2nc[nH]c12)c1cc2cccc(Cl)c2c(=O)n1-c1ccccc1 [Duvelisib] (10 µM) 0, CS(=O)(=O)c1ccc(-c2cnc(N)c(-c3ccc(C(F)(F)F)nc3)c2)cc1 (10 µM) 0, c1cc(NC2CCNCC2)nc(-c2cnc3ccccn23)c1 [IRAK inhibitor 1] (10 µM) 0, C[C@@H]1CCNC(=O)c2cc3ccc(C(=O)Nc4nc5ccccc5n4CCCN(C)C)cc3n21 (10 µM) 0, Cc1cnc(NC2CCOCC2)nc1-n1cnc(C(=O)N[C@H](CN)c2cc(F)cc(Cl)c2)c1 (10 µM) 0, O=C(NCc1cccc(O)c1)Nc1nc(-c2ccncc2)cs1 (10 µM) 0, Cc1cc2sc(NC(=O)Cc3ccccc3)nc2cc1Cl (10 µM) 0, COc1cc2ncnc(-n3nc(-c4ccccn4)nc3N)c2cc1OC (10 µM) 0, O=C(N[C@@H](C1CC1)C(F)(F)F)c1cc(-c2cnn3cc(-c4ccc(F)cc4)cnc23)cs1 (10 µM) 0, O=C1/C(=C\c2ccc(Cl)cc2)C=C(c2ccccc2)N1c1ccc(O)cc1 (2.5 µM) 0, CNC(=O)c1ccccc1Nc1nc(Nc2ccc3c(c2OC)CCC[C@H](N2CCN(CCO)CC2)C3)ncc1Cl (10 µM) 0, C=CC(=O)Nc1cccc(CNc2nc(Nc3ccc(N4CCN(C)CC4)cc3OC)ncc2Cl)c1 (10 µM) 0, CC(C)=CCc1c(-c2ccc(O)cc2O)oc2c3c(cc(O)c2c1=O)OC(C)(C)C=C3 [Morusin] (2.5 µM) 0, CN1CCC(c2ccccc2CC(C)(C)Nc2nc(N3CCOCC3)nc(-n3c(C(F)F)nc4ccccc43)n2)CC1 [Zandelisib] (10 µM) 0, CC(C)(O)[C@H]1CC[C@H](Nc2ccc3ncc(-c4cccc(C(F)(F)F)c4)n3n2)CC1 (10 µM) 0, CC(C)c1cc(/C=C(\C#N)C(=O)NCCCc2ccccc2)cc(C(C)C)c1O (10 µM) 0, CCOC(=O)N1C/C(=C/c2ccccc2F)C(=O)/C(=C\c2ccccc2F)C1 (2.5 µM) 0, C=CC(=O)Nc1cccc(-c2cccc3cnc(Nc4ccc(N5CCN(CCO)CC5)c(F)c4F)nc23)c1 [Olafertinib] (2.5 µM) 0, COc1cc(N2CCOCC2)ccc1Nc1ncc(Cl)c(Nc2ccccc2NS(C)(=O)=O)n1 (2.5 µM) 0, Nc1n[nH]c2nc(-c3ccc(NS(=O)(=O)c4cc(Cl)ccc4F)cc3)cnc12 (10 µM) 0, Nc1c(C(=O)NCc2ccc(C(=O)NCCCC3CCCCC3)cc2)cnn1-c1ccccc1 (2.5 µM) 0
